Assay results as given in paper PMC8208791.
Results are given in words; binding and its absence hold for the method and conditions named. Some binding calls cover weakened binding; strength is not graded here.

Molecular target: T1, Mms21 (S. cerevisiae) (UniProt P38632)
T1 sequence: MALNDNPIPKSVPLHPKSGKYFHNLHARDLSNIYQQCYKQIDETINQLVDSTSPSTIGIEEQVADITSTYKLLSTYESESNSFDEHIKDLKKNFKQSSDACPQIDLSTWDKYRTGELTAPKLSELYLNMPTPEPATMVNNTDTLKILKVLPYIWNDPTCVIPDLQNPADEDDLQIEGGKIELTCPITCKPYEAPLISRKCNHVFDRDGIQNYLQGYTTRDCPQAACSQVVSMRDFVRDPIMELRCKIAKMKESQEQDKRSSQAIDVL
Experiment: two-hybrid; bait (J 965), prey (J 1493) and reporter (J 359) plasmids in strain JC 1280; 6 h in 2% glucose or 2% galactose at 30°C; beta-galactosidase activity with ONPG, OD420 normalised to OD600

B1: Csm1 (protein, UniProt P25651 1-190)
chain: MDPLTVYKNSVKQQIDSADLLVANLVNENFVLSEKLDTKATEIKQLQKQIDSLNAQVKELKTQTSQQAENSEVIKDLYEYLCNVRVHKSYEDDSGLWFDISQGTHSGGSSDDYSIMDYKLGFVKGQAQVTEVIYAPVLKQRSTEELYSLQSKLPEYLFETLSFPLSSLNQFYNKIAKSLNKKREKKDETE
With B1 as the binder, how does the binding read?
The binding was “binds”.
